Tests used:
[1] = general procedure: Boc solid-phase peptide synthesis; 4-Methylbenzhydrylamine (MBHA) resin (Peninsula), 0.93 mmol/g; conditions: whole synthesis, analytical HPLC
[2] = general procedure: Boc solid-phase peptide synthesis; MBHA; conditions: whole synthesis, analytical HPLC

[Cha^7,11]hPTH(1-34)NH2
final HPLC purity [1]: >98%

[Glu^22,25, Leu^23,28, Lys^26,30, Aib^29, Ahc^31]hPTH(1-34)NH2
final HPLC purity [2]: >99%

[Cha^22, Leu^23, 28, 31, Glu^25, Lys^26,30, Ahc^27, Aib^29]hPTHrP(1-34)NH2
final HPLC purity [1]: >99%

[Aib^34]hPTH(1-34)NH2
final HPLC purity [2]: >99%

From patent US7632811B2 (Societe de Conseils de Recherches et D'Applications …, priority 1995, dated 2009)
